Experimental data published in PubChem BioAssay AID2685 (National Center for Advancing Translational Sciences (NCATS), 2010).
This is one part of the list. Further columns of the screen follow, without active or inactive calls. Compounds called inactive in the main read-out are mostly missing here. The note in brackets gives the kind of curve behind each potency; many fits are weak.

Assay: qHTS Assay for Lipid Storage Modulators in Drosophila S3 Cells;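 as to cell number change: cells counted by Cell Tracker Red CMTPX staining in the red channel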
Conditions: BODIPY lipid droplet fluorescence, 18-24 h; for cell number change: measured here: cell count max response, cells fed with added oleic acid
How it was run: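 Drosophila S3 cells loaded with oleic acid (400 uM, as added) and compounds at several concentrations; lipid droplets imaged by 488-nm laser-scanning cytometry, 500–530 nm intensity and object ratio to cell channel. Percent activity normalized to 20 uM Triacsin C.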

[1] = measured here: lipid fluorescence (Fed channel) AC50, cells fed with added oleic acid
[2] = measured here: cell number channel AC50, cells fed with added oleic acid

| Structure (SMILES) | cell number change | AC50 [1] | AC50 [2] |
| --- | --- | --- | --- |
| Cc1ccc(C(=O)NCc2ccc3c(c2)OCO3)cc1 | 8.47% | 29.1 µM [rising, single point] |  |
| COC(=O)c1sc(N)c(C(=O)OC)c1COC(=O)CNS(=O)(=O)c1cccc(C#N)c1 | -100% | 2.91 µM [rising, partial curve] | 29.1 µM [falling, single point] |
| O=C(NNC(=O)c1cccnc1)NC12CC3CC(CC(C3)C1)C2 | -32.4% | 29.1 µM [falling, single point] | 4.11 µM [falling, full curve] |
| CC(C)c1ccc(CN2CCSCC2)cc1 | 20.5% | 0.00411 µM [rising, full curve, poor fit] |  |
| N#CC1=C(N)N(c2ccccc2)C2=C(C(=O)CCC2)C1c1ccsc1 (stereo unspecified) | -7.29% | 0.326 µM [rising, full curve] |  |
| CCOc1cc(N2CCOCC2)c(OCC)cc1NC(=O)c1[nH]c(C)c(C(C)=O)c1C | -21.8% | 2.91 µM [rising, partial curve] | 3.26 µM [rising, single point] |
| O=[N+]([O-])c1ccc2nc(C3CCCCC3)[nH]c2c1 | -22.2% |  |  |
| CN(C)C(CNc1ncccn1)c1ccccc1 (stereo unspecified) | 7.89% | 1.26 µM [falling, partial curve] |  |
| CSCCC(NS(=O)(=O)c1ccc(Cl)cc1)C(=O)OCC(=O)N(C(C)C)C(C)C (stereo unspecified) | 2.84% |  |  |
| CC(=O)c1cccc(OCc2cc(C(=O)N3CCC(N4CCCCC4)CC3)no2)c1 | 81.2% |  | 18.4 µM [rising, partial curve] |
| COc1ccc(NC(=O)CSc2nccn2Cc2ccco2)cc1 | 0.578% | 6.51 µM [falling, partial curve, poor fit] |  |
| O=C(Nc1ccc(N2CCN(C(=O)c3ccco3)CC2)c(Cl)c1)c1cccnc1 | -3.25% |  |  |
| O=C1CCC([N+](=O)[O-])C(c2ccccc2C(F)(F)F)N1 (stereo unspecified) | -7.82% | 3.26 µM [falling, full curve, poor fit] |  |
| CC(C)OCCCNC(=O)C(C)Oc1ccccc1 (stereo unspecified) | -9.86% | 23.1 µM [falling, partial curve] | 0.00411 µM [falling, full curve, poor fit] |
| O=C(Nc1ccncc1)Nc1cccc(C(F)(F)F)c1 | -38.1% |  | 32.6 µM [falling, single point] |
| Nc1nc(Nc2ccccc2)nc(N2CCCC2)c1[N+](=O)[O-] | -31.5% |  | 18.4 µM [falling, single point] |
| Cc1cc(/C=N/NC(=O)c2ccc(CN3CCOCC3)cc2)c(C)n1-c1ccccc1 |  |  | 6.51 µM [falling, single point] |
| O=C(CSc1nnc2ccc(-c3ccc(F)cc3)nn12)N1CCCC1 | -35.2% | 0.517 µM [falling, full curve] | 0.206 µM [falling, full curve, poor fit] |
| Cc1nc(C)c(N)c(=O)[nH]1 | -7.95% | 4.11 µM [falling, single point] | 3.66 µM [falling, single point] |
| COc1cccc(C(=O)NC2=NCCS2)c1OC |  | 1.46 µM [falling, full curve] | 1.3 µM [falling, partial curve] |

| Structure (SMILES) | cell number change | AC50 [1] | AC50 [2] |
| --- | --- | --- | --- |
| O=C(O)CC(NC(=S)NCc1ccccc1)C(=O)O (stereo unspecified) | -3.19% | 1.16 µM [falling, full curve] |  |
| OC(COCCC12CC3CC(CC(C3)C1)C2)CN1CCCCC1 (stereo unspecified) | 4.05% |  |  |
| CC1(C)Cc2noc(N)c2C(C)(C)N1OC(=O)c1cccs1 | 8.04% | 1.46 µM [falling, partial curve] | 0.461 µM [falling, full curve] |
| COc1cccc(NC(=S)NC(C)c2ccc(OC)c(OC)c2)c1 (stereo unspecified) | -34.3% |  |  |
| Cc1cc(=O)n2nc(N3CCC(C(=O)NCCc4ccc(Cl)cc4)CC3)sc2n1 | 9.51% | 29.1 µM [falling, single point] |  |
| Cc1ccc(NC(=O)CSCC(=O)Nc2ncc3c(n2)CC(c2ccco2)CC3=O)cc1 (stereo unspecified) | 109% |  | 20.6 µM [rising, single point] |
| COc1ccc(CC(=O)OCC(=O)Nc2c(C)n(C)n(-c3ccccc3)c2=O)cc1OC | 12.8% | 13 µM [falling, partial curve, poor fit] |  |
| COc1ccc(NC(=O)CSc2nnc(-c3ccccc3Cl)n2Cc2ccco2)c(OC)c1 |  | 29.1 µM [falling, single point] |  |
| CC1=CC(C)(C)N(S(=O)(=O)c2ccc(F)cc2)c2ccccc21 | 24.1% |  | 0.164 µM [falling, full curve] |
| COc1ccc2c(c1)c1nc3ccccc3nc1n2Cc1ccc(OC)c(OC)c1 | 23.3% |  |  |
| O=C(/C=C/c1ccccc1)NNc1ccc(Cl)cc1 | -22% |  | 0.164 µM [falling, full curve, poor fit] |
| CCCCc1nnc2c(N(C)S(=O)(=O)c3ccccc3)nc3ccccc3n12 | -2.03% | 0.0731 µM [rising, full curve, poor fit] |  |
| O=c1[nH]c(C2CCN(S(=O)(=O)c3cccc(Cl)c3)CC2)nc2c1nnn2Cc1ccccc1 | 1.21% |  |  |
| CSc1nsc(SCC(=O)Nc2ccc(C(N)=O)cc2)n1 |  | 11.6 µM [falling, single point] |  |
| CCOCCCNC(=O)c1cn(C)c(=O)c2cc(OC)c(OC)cc12 | 37.2% | 1.84 µM [falling, partial curve] |  |
| Cc1cc(C(=O)NCc2cc(F)cc3c2OCOC3)nn1C | 35.6% | 0.92 µM [rising, full curve] | 0.0103 µM [rising, full curve, poor fit] |
| CC(C)C(c1nnnn1Cc1ccccc1)N1CCN(Cc2ccco2)CC1 (stereo unspecified) | -1.33% | 3.66 µM [rising, single point] |  |
| Cc1cc(C)n2nc(CNS(=O)(=O)c3cccc([N+](=O)[O-])c3)nc2n1 | 12.6% | 29.1 µM [falling, single point] |  |
| CC1CCCN(C(=O)CSc2n[nH]c(-c3cccs3)n2)C1 (stereo unspecified) | 53.8% |  | 18.4 µM [rising, single point] |

Quoted from the listing:
O=[N+]([O-])c1ccc2nc(C3CCCCC3)[nH]c2c1 – cell number change: -22.2%
N#CC1=C(N)N(c2ccccc2)C2=C(C(=O)CCC2)C1c1ccsc1 (stereo unspecified) – cell number change: -7.29%
